# According to patent US10954428B2, “Alkoxyphenyl carboxylic acid tracers” (RESTRACK AS, priority 2015, dated 2021):
# Some of these results come from one statement about several compounds together.
# Assay: Thermal stability of tracer candidates up to 150° C. (recovery in reservoir like matrices)
# Format: physicochemical
# Conditions: tested for thermal stability up to 150° C.; recovery data in FIG. 2
row,SMILES,thermally stable at least up to (temperature) [°C]
1,"COc1cccc(C(=O)O)c1 [3-MOBA, 3-methoxybenzoic acid]",≥ 100
2,"COc1ccc(C(=O)O)cc1 [4-MOBA, 4-methoxybenzoic acid]",≥ 100
